Results: PubChem BioAssay AID540276 (National Center for Advancing Translational Sciences (NCATS), 2011)
Out of some 300,000 compounds screened, about 5,400 (1.8%) were called active. This list was built around the results that the source calls inconclusive (neither active nor inactive); the mix of calls is not that of the screen. Calls come from the whole dose curve; tested in HEK293 cells. Where the call is inconclusive, the potency comes from a doubtful curve fit.

Assay: qHTS for inhibitors of binding or entry into cells for Marburg Virus
Settings: Marburg virus pseudotyped entry inhibition, cell reporter; series mostly up to 37.8 µM
Potency is the fitted concentration of half-maximal effect.

| SMILES | Potency |
| --- | --- |
| CCOC(=O)Cc1csc(NC(=O)NC2(C(F)(F)F)Oc3ccc(Cl)cc3O2)n1 (stereo not given) | inconclusive: 35.5 µM [inhibitor, single point] |
| Cc1noc(C)c1CSc1nc2ccccc2[nH]1 | inactive |
| O=C1CSC(c2cccnc2)N1c1ccc(F)cc1 (stereo not given) | inconclusive: 18.3 µM [activator, single point] |
| COc1ccc(C(=O)C(C)Oc2cccc(NC(=O)c3cccc([N+](=O)[O-])c3)c2)cc1 (stereo not given) | inconclusive: 11.2 µM [inhibitor, partial curve, poor fit] |
| Cc1occc1-c1nnc(SCC(=O)N2c3ccccc3CCc3ccccc32)n1C | inactive |
| CCc1ccccc1NC(=O)NC(CC)Cn1nnc2ccccc2c1=O (stereo not given) | inactive |
| Cc1ccc(F)cc1NC(=O)CSc1nc(Nc2ccccc2)nc(N2CCOCC2)n1 | inconclusive: 3.16 µM [inhibitor, full curve, poor fit] |
| COC(=O)CC1C(=O)NC2CCCCC2N1C(=O)CCl (stereo not given) | inconclusive: 35.5 µM [inhibitor, single point] |
| Clc1ccc(Cn2cnc3ccccc32)cc1 | inconclusive: 6.31 µM [inhibitor, partial curve] |
| O=C(c1ccccn1)N1CCN(C(=O)c2ccccn2)CC1 | inactive |
| O=C(CSc1ccc(Cl)cc1)N1CCN(c2c(Cl)cccc2[N+](=O)[O-])CC1 | inconclusive: 35.5 µM [inhibitor, single point] |
| CC(C)CN1CCN(Cc2cccn2-c2ccc(Cl)cn2)CC1CCO (stereo not given) | inconclusive: 1.12 µM [inhibitor, partial curve, poor fit] |
| COc1ccccc1-c1nnc(SCC(=O)OC(C)C)o1 | inactive |
| CC(=O)Nc1nc2c(s1)C(=O)NCCC2 | inconclusive: 35.5 µM [activator, single point] |
| Fc1ccc(Cn2nnnc2CN2CCN(C3CCCCC3)CC2)cc1 | inactive |
| CC(CN1CCCCC1)OC(=O)C1c2ccccc2Oc2ccccc21 (stereo not given) | inconclusive: 0.0052 µM [inhibitor, full curve, poor fit] |
| COc1ccc(N2CCN(C(=O)c3oc4ccccc4c3C)CC2)cc1 | inactive |
| CN1CCN(c2ccc(Cl)cc2NS(=O)(=O)c2ccccc2Cl)CC1 | inconclusive: 1.3 µM [inhibitor, full curve, poor fit] |
| CC(=O)Nc1ccccc1NC(=O)C/C(C)=N/NC(=O)C1CCCCC1 | inactive |
| CCOC(=O)c1[nH]c(C)c(C(=O)Nc2ccc(C)c(F)c2)c1C | inconclusive: 7.3 µM [inhibitor, partial curve, poor fit] |
| CCS(=O)(=O)N1CCc2cc(C(=O)NCc3ccccc3Cl)ccc21 | inconclusive: 12.6 µM [inhibitor, partial curve, poor fit] |
| Cc1nn(C)cc1S(=O)(=O)Nc1ccccc1Br | inconclusive: 1.26 µM [activator, single point] |
| CSc1nc(Cl)c(Cc2ccc(OC(C)C)cc2)c(N2CCOCC2)n1 | inconclusive: 11.2 µM [inhibitor, partial curve, poor fit] |
| Cc1ccc(-c2n[nH]c(=O)c3ccccc23)cc1S(=O)(=O)NCCO | inactive |

| SMILES | Potency |
| --- | --- |
| Cc1ccc(N2CC(C)Cn3c2nc2c3c(=O)[nH]c(=O)n2C)cc1C (stereo not given) | inconclusive: 1.26 µM [activator, single point] |
| COc1ccc(/C=N/NC(=O)c2cc(C)oc2C)cc1OC | inconclusive: 0.562 µM [inhibitor, full curve, poor fit] |
| Cc1ccc2oc(=O)c3cc(C(=O)NCCc4ccc(Cl)cc4)sc3c2c1 | inactive |
| Cc1ccc(C)c(-c2cc(C(=O)Nc3cccc(C(=O)O)c3)c3ccccc3n2)c1 | inactive |
| CN(C)C(=O)CSc1ccc(S(=O)(=O)N2CCCC2)cn1 | inconclusive: 14.1 µM [activator, single point] |
| Cc1ccc(SCCCCN2CCNCC2)cc1 | inconclusive: 32.6 µM [inhibitor, single point] |
| Cc1[nH]c2ccccc2c1/C=N/NC(=O)C1CC1(c1ccccc1)c1ccccc1 (stereo not given) | inconclusive: 35.5 µM [inhibitor, single point] |
| CC1=CC(C)(C)N(C(=O)CNC2CCCCC2)c2cc(C)ccc21 | inconclusive: 22.4 µM [inhibitor, single point] |
| COc1cc(CNC(C)C)c(Br)cc1OC1CCCC1 | inconclusive: 10 µM [inhibitor, partial curve, poor fit] |
| CCC(=O)N(CC)C1=C(O)c2ccccc2C(=O)C1=O | inactive |
| COc1ccccc1N1CCN(C(=O)c2cc(-c3ccc(Cl)c(Cl)c3)on2)CC1 | inconclusive: 20.6 µM [inhibitor, single point] |
| COc1ccc(NC(=O)Nc2c(C)n(C)n(-c3ccccc3)c2=O)c(OC)c1 | inconclusive: 20 µM [activator, single point] |
| CC(=O)c1ccc(OCc2cc(=O)n3ccsc3n2)cc1 | inconclusive: 6.51 µM [inhibitor, single point] |
| CCOc1ccc(-c2cn(-c3ccccc3OC)c(=S)[nH]2)cc1 | inconclusive: 6.31 µM [inhibitor, partial curve] |
| CCS(=O)(=O)N1CCC(C(=O)NCc2ccc3c(c2)OCO3)CC1 | inactive |
| Cc1cc(C(=O)CSc2ccc(F)cc2)cc(C)c1OC(=S)N(C)C | inconclusive: 14.1 µM [inhibitor, single point] |
| C/C(=N\NC(=O)c1cc(-c2ccc(Br)s2)[nH]n1)c1ccncc1 | inconclusive: 14.1 µM [inhibitor, partial curve, poor fit] |
| NS(=O)(=O)c1ccc(NC(=O)COC(=O)CCCN2C(=O)c3cccc4cccc(c34)C2=O)cc1 | inactive |
| CC(/C=C/c1ccco1)=N/NC(=O)OC(C)(C)C | inactive |
| O=C(Cc1nnc(NC(=O)Nc2ccc(F)cc2)s1)NCc1ccccc1 | inconclusive: 3.55 µM [inhibitor, partial curve, poor fit] |
| CCC1CCCCN1C(=O)CSc1nc(N)cc(=O)[nH]1 (stereo not given) | inconclusive: 25.1 µM [activator, single point] |
| Nc1c(-c2nc(-c3ccc4c(c3)OCO4)cs2)c2ccccn2c1C(=O)c1ccc(Cl)cc1 | inconclusive: 10 µM [inhibitor, partial curve, poor fit] |
| N/C(=N\OC(=O)/C=C/c1ccccc1)c1ccc(Br)cc1 | inconclusive: 3.16 µM [activator, single point] |
| COc1ccccc1-c1noc(-c2ccccc2C(=O)NCc2ccco2)n1 | inconclusive: 6.31 µM [inhibitor, single point] |

Some of the entries above, set out differently:
SMILES | Potency
C/C(=N\NC(=O)c1cc(-c2ccc(Br)s2)[nH]n1)c1ccncc1 | inconclusive: 14.1 µM [inhibitor, partial curve, poor fit]
N/C(=N\OC(=O)/C=C/c1ccccc1)c1ccc(Br)cc1 | inconclusive: 3.16 µM [activator, single point]

Next part

| SMILES | Potency |
| --- | --- |
| CCN1CCc2c(sc(NC(=O)c3ccc(S(=O)(=O)N4CCCCCC4)cc3)c2C(=O)NC)C1 | inconclusive: 15.8 µM [inhibitor, single point] |
| O=c1cc(-c2ccccc2[N+](=O)[O-])oc2ccccc12 | inconclusive: 3.98 µM [inhibitor, partial curve, poor fit] |
| NC(=O)NCc1cccc(Cl)c1 | inconclusive: 29.1 µM [activator, partial curve, poor fit] |
| O=C(COC(=O)/C=C/c1cccc(F)c1)NC1CCCCCC1 | inactive |
| CSc1ncccc1C(=O)Nc1ccc2c(c1)OCO2 | inconclusive: 11.2 µM [activator, partial curve] |
| Cc1nc(-c2ccc(-c3ccc(C(=O)N4CCc5cc6c(cc54)C4(CCN(C)CC4)CO6)cc3)c(C)c2)no1 | active: 5.01 µM |
| Cc1cccc(NC(=S)NC(=O)/C=C/c2ccccc2)n1 | inconclusive: 25.9 µM [activator, single point] |
| NC1(C(=O)O)CCCc2ccc(N(CCCl)CCCl)cc21 (stereo not given) | active: 10 µM |
| COc1ccc(S(=O)(=O)c2cnc3ccccc3n2)cc1 | inconclusive: 15.8 µM [inhibitor, single point] |
| CCn1c(CNC(=O)c2cccs2)nnc1SCC(=O)Nc1cc(Cl)ccc1C | inconclusive: 29.1 µM [inhibitor, single point] |
| O=C(O)c1cn[nH]c1-n1cnnn1 | inactive |
| NS(=O)(=O)c1cccnc1Nc1cccc(Cl)c1Cl | inconclusive: 5.62 µM [activator, single point] |
| Cc1[nH]c2ccc(Br)cc2c(=O)c1CN1CCOCC1 | inactive |
| CC(=O)c1cccc(NC(=O)NC2CCCCCCC2)c1 | inactive |
| Cc1ccc(-n2cc(CNC(C)Cc3cnccn3)c(-c3cccc(C)c3)n2)cc1 (stereo not given) | inconclusive: 5.01 µM [inhibitor, partial curve, poor fit] |
| COC(=O)c1cncc(O)c1 | inactive |
| COc1ccc(CC(=O)N(Cc2ccccc2)c2ccccc2)cc1S(=O)(=O)N1CCOCC1 | inconclusive: 3.98 µM [inhibitor, partial curve, poor fit] |
| COc1ccc2c(c1)CCc1c(C(=O)Nc3ccc(OC)cc3OC)noc1-2 | inactive |
| CCOc1ccc(N2C(=O)C(CC(=O)Nc3ccccc3)N(Cc3ccccn3)C2=S)cc1 (stereo not given) | inconclusive: 3.16 µM [inhibitor, full curve, poor fit] |
| FC(F)(F)c1cc(-c2cccs2)nc(NCc2ccco2)n1 | inconclusive: 6.51 µM [inhibitor, full curve, poor fit] |
| OC1(c2ccc(Cl)c(Cl)c2)C[n+]2ccccc2N1Cc1ccccc1 (stereo not given) | inconclusive: 7.94 µM [inhibitor, partial curve, poor fit] |
| O=C(/C=C/c1cccs1)c1cc(Br)ccc1OC(=O)N1CCOCC1 | inconclusive: 16.4 µM [inhibitor, single point] |
